Data from paper doi:10.1101/2025.09.22.677877.
Like-named read-outs stand apart in the source and are kept apart here. No constants are given. Whether binding was seen depends on the method and setting. For part of these data: In cells and extracts the contact can be indirect. Some binding calls cover weakened binding; strength is not graded here. For part of these data: Sequences can lack the tags named with a protein.

Protein sequences, listed by entry. Tags and fused reporters are not part of them. Lines headed by an entry give the natural chain unless they say otherwise; changes in a name come on top. Residues count along the entry.
UniProt Q84TH9, whole entry: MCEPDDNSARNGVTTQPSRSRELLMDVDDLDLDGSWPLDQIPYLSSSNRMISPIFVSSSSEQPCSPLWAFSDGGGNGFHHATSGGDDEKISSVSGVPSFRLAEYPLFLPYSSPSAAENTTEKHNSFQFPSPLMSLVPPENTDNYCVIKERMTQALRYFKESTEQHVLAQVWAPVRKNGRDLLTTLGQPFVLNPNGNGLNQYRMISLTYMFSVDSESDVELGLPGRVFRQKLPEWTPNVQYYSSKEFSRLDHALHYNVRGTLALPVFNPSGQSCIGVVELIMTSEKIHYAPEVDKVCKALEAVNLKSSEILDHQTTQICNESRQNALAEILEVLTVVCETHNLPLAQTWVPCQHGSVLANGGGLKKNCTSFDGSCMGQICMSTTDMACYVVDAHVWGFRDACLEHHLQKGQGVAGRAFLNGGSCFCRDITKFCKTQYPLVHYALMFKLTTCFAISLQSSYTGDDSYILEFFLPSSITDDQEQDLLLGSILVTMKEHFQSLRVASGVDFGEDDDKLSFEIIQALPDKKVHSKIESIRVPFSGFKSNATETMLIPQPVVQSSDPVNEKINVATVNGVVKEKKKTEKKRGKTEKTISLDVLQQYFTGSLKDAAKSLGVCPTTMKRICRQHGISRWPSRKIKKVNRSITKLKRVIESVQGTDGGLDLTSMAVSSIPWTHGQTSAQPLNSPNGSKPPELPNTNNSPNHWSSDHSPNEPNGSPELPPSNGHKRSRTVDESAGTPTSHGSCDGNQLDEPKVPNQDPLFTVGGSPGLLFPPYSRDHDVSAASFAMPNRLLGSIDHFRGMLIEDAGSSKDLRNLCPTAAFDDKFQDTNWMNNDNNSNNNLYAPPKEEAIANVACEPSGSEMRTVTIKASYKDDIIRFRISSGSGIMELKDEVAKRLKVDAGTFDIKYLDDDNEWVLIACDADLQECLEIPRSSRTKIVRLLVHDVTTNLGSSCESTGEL
UniProt Q84TH9, 1-863, stated change not applied: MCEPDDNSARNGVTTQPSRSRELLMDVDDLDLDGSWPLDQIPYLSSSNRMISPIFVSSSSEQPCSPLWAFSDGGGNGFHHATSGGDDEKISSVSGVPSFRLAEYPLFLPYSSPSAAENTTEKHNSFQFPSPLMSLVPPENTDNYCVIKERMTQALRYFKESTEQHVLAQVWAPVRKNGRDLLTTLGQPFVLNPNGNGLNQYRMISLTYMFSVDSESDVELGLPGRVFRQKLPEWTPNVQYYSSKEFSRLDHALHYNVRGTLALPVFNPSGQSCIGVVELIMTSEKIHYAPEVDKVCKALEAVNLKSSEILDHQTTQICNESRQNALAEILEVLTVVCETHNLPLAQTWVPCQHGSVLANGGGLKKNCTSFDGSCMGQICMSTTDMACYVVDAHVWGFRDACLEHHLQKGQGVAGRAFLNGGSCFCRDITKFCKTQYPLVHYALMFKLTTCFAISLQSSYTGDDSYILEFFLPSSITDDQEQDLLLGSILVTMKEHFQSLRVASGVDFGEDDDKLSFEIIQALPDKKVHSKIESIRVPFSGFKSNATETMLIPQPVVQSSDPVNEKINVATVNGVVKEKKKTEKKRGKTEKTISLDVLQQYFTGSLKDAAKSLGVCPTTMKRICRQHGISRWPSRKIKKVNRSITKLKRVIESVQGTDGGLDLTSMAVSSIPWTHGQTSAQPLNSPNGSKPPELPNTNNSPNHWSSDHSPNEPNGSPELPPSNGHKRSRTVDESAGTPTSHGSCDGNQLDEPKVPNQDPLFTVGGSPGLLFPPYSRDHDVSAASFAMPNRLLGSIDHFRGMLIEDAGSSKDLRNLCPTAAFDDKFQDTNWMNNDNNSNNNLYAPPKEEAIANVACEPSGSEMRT
UniProt F4ID16, whole entry: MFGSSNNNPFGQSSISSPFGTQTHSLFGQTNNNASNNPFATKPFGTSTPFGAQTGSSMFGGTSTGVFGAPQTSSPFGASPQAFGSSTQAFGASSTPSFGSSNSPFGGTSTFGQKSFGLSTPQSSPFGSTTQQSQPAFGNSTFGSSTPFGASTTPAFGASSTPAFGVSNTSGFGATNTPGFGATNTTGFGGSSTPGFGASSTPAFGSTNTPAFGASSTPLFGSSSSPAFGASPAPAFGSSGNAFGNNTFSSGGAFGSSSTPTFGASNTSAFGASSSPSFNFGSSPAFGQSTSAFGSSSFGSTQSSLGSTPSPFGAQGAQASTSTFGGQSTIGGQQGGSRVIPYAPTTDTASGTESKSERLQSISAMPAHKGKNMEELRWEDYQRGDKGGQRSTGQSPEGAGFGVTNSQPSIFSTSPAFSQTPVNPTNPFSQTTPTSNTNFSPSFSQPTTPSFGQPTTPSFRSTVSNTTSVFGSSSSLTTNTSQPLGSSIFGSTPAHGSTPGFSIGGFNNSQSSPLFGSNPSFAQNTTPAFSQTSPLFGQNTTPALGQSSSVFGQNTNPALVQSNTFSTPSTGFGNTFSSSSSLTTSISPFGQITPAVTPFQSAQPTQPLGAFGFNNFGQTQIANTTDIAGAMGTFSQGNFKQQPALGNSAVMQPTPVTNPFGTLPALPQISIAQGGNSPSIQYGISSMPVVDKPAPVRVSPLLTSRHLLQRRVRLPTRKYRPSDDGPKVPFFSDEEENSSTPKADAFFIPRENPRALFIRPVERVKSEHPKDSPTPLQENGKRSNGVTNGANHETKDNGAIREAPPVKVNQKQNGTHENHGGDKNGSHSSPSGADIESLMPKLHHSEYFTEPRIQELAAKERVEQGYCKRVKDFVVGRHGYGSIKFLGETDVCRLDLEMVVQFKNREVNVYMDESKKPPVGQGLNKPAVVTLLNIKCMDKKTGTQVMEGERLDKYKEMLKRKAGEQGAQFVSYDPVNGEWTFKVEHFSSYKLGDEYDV

Key:
[1] = molecular target: CYFP-NLP7 (Arabidopsis thaliana (Columbia accession)) (UniProt Q84TH9); test: split reporter
[2] = molecular target: full-length NLP7 protein (bait of the Hybrigenics yeast two-hybrid screen) (Arabidopsis thaliana) (UniProt Q84TH9); test: two-hybrid
[3] = molecular target: NLP7ΔGAF (NLP7 without the predicted GAF domain) (Arabidopsis thaliana (Columbia accession)) (UniProt Q84TH9); test: split reporter
[4] = molecular target: NLP7ΔPB1 (NLP7 without PB1 domain) (Arabidopsis thaliana (Columbia accession)) (UniProt Q84TH9); test: split reporter
[5] = molecular target: CYFP-NLP7 (Arabidopsis thaliana (Columbia accession)) (UniProt Q84TH9); test: split reporter; remark: listed apart in the source
[6] = molecular target: NLP7 fused with the binding domain (BD) (Arabidopsis thaliana (Columbia accession)) (UniProt Q84TH9); test: two-hybrid

In the case of “NUP98B (split-YFP fusion for BiFC) (from UniProt F4ID16 1-997)”, the binding [1] is reported as “binds”.

B1: NUP98A (found in the Hybrigenics yeast two-hybrid screen) (protein, UniProt Q8RY25 1-1041)
chain: MFGSSNPFGQSSGTSPFGSQSLFGQTSNTSSNNPFAPATPFGTSAPFAAQSGSSIFGSTSTGVFGAPQTSSPFASTPTFGASSSPAFGNSTPAFGASPASSPFGGSSGFGQKPLGFSTPQSNPFGNSTQQSQPAFGNTSFGSSTPFGATNTPAFGAPSTPSFGATSTPSFGASSTPAFGATNTPAFGASNSPSFGATNTPAFGASPTPAFGSTGTTFGNTGFGSGGAFGASNTPAFGASGTPAFGASGTPAFGASSTPAFGASSTPAFGASSTPAFGGSSTPSFGASNTSSFSFGSSPAFGQSTSAFGSSAFGSTPSPFGGAQASTPTFGGSGFGQSTFGGQQGGSRAVPYAPTVEADTGTGTQPAGKLESISAMPAYKEKNYEELRWEDYQRGDKGGPLPAGQSPGNAGFGISPSQPNPFSPSPAFGQTSANPTNPFSSSTSTNPFAPQTPTIASSSFGTATSNFGSSPFGVTSSSNLFGSGSSTTTSVFGSSSAFGTTTPSPLFGSSSTPGFGSSSSIFGSAPGQGATPAFGNSQPSTLFNSTPSTGQTGSAFGQTGSAFGQFGQSSAPAFGQNSIFNKPSTGFGNMFSSSSTLTTSSSSPFGQTMPAGVTPFQSAQPGQASNGFGFNNFGQNQAANTTGNAGGLGIFGQGNFGQSPAPLNSVVLQPVAVTNPFGTLPAMPQISINQGGNSPSIQYGISSMPVVDKPAPVRISSLLTSRHLLHRRVRLPARKYRPGENGPKVPFFTDDEESSSTPKADALFIPRENPRALVIRPVQQWSSRDKSILPKEQRPTAPLHDNGKSPDMATDAANHDRNGNGELGATGERIHTSVNANQKPNGTTRSDQASEKERPYKTLSGHRAGEAAIVYEHGADIEALMPKLRQSDYFTEPRIQELAAKERADPGYCRRVRDFVVGRHGYGSIKFMGETDVRRLDLESLVQFNTREVIVYMDESKKPAVGQGLNKPAEVTLLNIKCIDKKTGKQFTEGERVEKYKMMLKKKAEAQGAEFVSFDPVKGEWKFRVEHFSSYKLGDEDEEDGV
B1 was tested, and the binding [2] was “binds”.

B2: NYFP-NUP98A (protein, UniProt Q8RY25 1-1041)
chain: MFGSSNPFGQSSGTSPFGSQSLFGQTSNTSSNNPFAPATPFGTSAPFAAQSGSSIFGSTSTGVFGAPQTSSPFASTPTFGASSSPAFGNSTPAFGASPASSPFGGSSGFGQKPLGFSTPQSNPFGNSTQQSQPAFGNTSFGSSTPFGATNTPAFGAPSTPSFGATSTPSFGASSTPAFGATNTPAFGASNSPSFGATNTPAFGASPTPAFGSTGTTFGNTGFGSGGAFGASNTPAFGASGTPAFGASGTPAFGASSTPAFGASSTPAFGASSTPAFGGSSTPSFGASNTSSFSFGSSPAFGQSTSAFGSSAFGSTPSPFGGAQASTPTFGGSGFGQSTFGGQQGGSRAVPYAPTVEADTGTGTQPAGKLESISAMPAYKEKNYEELRWEDYQRGDKGGPLPAGQSPGNAGFGISPSQPNPFSPSPAFGQTSANPTNPFSSSTSTNPFAPQTPTIASSSFGTATSNFGSSPFGVTSSSNLFGSGSSTTTSVFGSSSAFGTTTPSPLFGSSSTPGFGSSSSIFGSAPGQGATPAFGNSQPSTLFNSTPSTGQTGSAFGQTGSAFGQFGQSSAPAFGQNSIFNKPSTGFGNMFSSSSTLTTSSSSPFGQTMPAGVTPFQSAQPGQASNGFGFNNFGQNQAANTTGNAGGLGIFGQGNFGQSPAPLNSVVLQPVAVTNPFGTLPAMPQISINQGGNSPSIQYGISSMPVVDKPAPVRISSLLTSRHLLHRRVRLPARKYRPGENGPKVPFFTDDEESSSTPKADALFIPRENPRALVIRPVQQWSSRDKSILPKEQRPTAPLHDNGKSPDMATDAANHDRNGNGELGATGERIHTSVNANQKPNGTTRSDQASEKERPYKTLSGHRAGEAAIVYEHGADIEALMPKLRQSDYFTEPRIQELAAKERADPGYCRRVRDFVVGRHGYGSIKFMGETDVRRLDLESLVQFNTREVIVYMDESKKPAVGQGLNKPAEVTLLNIKCIDKKTGKQFTEGERVEKYKMMLKKKAEAQGAEFVSFDPVKGEWKFRVEHFSSYKLGDEDEEDGV
B2 was tested, and the binding [3] was “binds”, the binding [4] was “binds” and the binding [5] was “binds”.

B3: NUP98A fused with the DNA activation domain (AD) (protein, UniProt Q8RY25 1-1041)
chain: MFGSSNPFGQSSGTSPFGSQSLFGQTSNTSSNNPFAPATPFGTSAPFAAQSGSSIFGSTSTGVFGAPQTSSPFASTPTFGASSSPAFGNSTPAFGASPASSPFGGSSGFGQKPLGFSTPQSNPFGNSTQQSQPAFGNTSFGSSTPFGATNTPAFGAPSTPSFGATSTPSFGASSTPAFGATNTPAFGASNSPSFGATNTPAFGASPTPAFGSTGTTFGNTGFGSGGAFGASNTPAFGASGTPAFGASGTPAFGASSTPAFGASSTPAFGASSTPAFGGSSTPSFGASNTSSFSFGSSPAFGQSTSAFGSSAFGSTPSPFGGAQASTPTFGGSGFGQSTFGGQQGGSRAVPYAPTVEADTGTGTQPAGKLESISAMPAYKEKNYEELRWEDYQRGDKGGPLPAGQSPGNAGFGISPSQPNPFSPSPAFGQTSANPTNPFSSSTSTNPFAPQTPTIASSSFGTATSNFGSSPFGVTSSSNLFGSGSSTTTSVFGSSSAFGTTTPSPLFGSSSTPGFGSSSSIFGSAPGQGATPAFGNSQPSTLFNSTPSTGQTGSAFGQTGSAFGQFGQSSAPAFGQNSIFNKPSTGFGNMFSSSSTLTTSSSSPFGQTMPAGVTPFQSAQPGQASNGFGFNNFGQNQAANTTGNAGGLGIFGQGNFGQSPAPLNSVVLQPVAVTNPFGTLPAMPQISINQGGNSPSIQYGISSMPVVDKPAPVRISSLLTSRHLLHRRVRLPARKYRPGENGPKVPFFTDDEESSSTPKADALFIPRENPRALVIRPVQQWSSRDKSILPKEQRPTAPLHDNGKSPDMATDAANHDRNGNGELGATGERIHTSVNANQKPNGTTRSDQASEKERPYKTLSGHRAGEAAIVYEHGADIEALMPKLRQSDYFTEPRIQELAAKERADPGYCRRVRDFVVGRHGYGSIKFMGETDVRRLDLESLVQFNTREVIVYMDESKKPAVGQGLNKPAEVTLLNIKCIDKKTGKQFTEGERVEKYKMMLKKKAEAQGAEFVSFDPVKGEWKFRVEHFSSYKLGDEDEEDGV
In the case of B3, the binding [6] is reported as “binds”.
